Measured values reported in US12667572B2, “Tricyclic compounds useful in the treatment of cancer, autoimmune and inflammatory disorders” (SCHRÖDINGER, INC., priority 2021, dated 2026).
Structures were worked out from names or drawings and are uncertain.

Sequences of proteins named here, by UniProt entry; tags and fusion partners are left off.
UniProt Q9UDY8, whole entry: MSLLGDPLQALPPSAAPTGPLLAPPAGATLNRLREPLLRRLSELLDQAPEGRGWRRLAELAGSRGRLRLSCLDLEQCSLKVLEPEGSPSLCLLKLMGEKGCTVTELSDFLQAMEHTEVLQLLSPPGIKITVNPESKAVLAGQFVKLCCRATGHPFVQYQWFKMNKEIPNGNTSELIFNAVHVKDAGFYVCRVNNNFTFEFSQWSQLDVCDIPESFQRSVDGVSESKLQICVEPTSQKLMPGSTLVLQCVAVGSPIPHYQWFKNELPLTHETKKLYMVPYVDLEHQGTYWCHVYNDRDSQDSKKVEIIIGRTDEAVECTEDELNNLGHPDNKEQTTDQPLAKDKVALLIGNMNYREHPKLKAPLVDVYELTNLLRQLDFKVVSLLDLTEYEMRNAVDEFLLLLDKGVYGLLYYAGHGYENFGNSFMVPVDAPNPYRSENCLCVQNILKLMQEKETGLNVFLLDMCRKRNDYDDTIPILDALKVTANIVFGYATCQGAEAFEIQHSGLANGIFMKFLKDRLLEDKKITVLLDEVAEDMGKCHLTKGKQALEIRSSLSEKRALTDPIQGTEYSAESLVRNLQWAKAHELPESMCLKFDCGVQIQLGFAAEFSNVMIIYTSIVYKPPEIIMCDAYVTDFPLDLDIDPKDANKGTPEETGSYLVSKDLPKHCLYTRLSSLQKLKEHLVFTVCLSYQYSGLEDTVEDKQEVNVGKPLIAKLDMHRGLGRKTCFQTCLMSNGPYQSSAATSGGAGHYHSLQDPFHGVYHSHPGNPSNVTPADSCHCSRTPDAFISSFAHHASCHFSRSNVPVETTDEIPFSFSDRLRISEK

Molecular target: full-length MALT1 protein His-MALT1(1-824) (Homo sapiens, UniProt Q9UDY8)
Test: MALT1 protease assay, Assay 2 (1 nM MALT1, Ac-LRSR-AMC substrate)
Settings: read-out: MALT1 IC50 [nM] Assay 2; 1 nM MALT1, 50 μM Ac-LRSR-AMC, 2 h pre-incubation, 8 hr incubation at RT
Experimental: MALT1 protease activity was assessed in an in vitro assay using a tetrapeptide as substrate and full-length MALT1 protein His-MALT1(1-824) purified from baculovirus-infected insect cells. The tetrapeptide substrate is Ac-LRSR-AMC (SM Biochemicals) with Km measured at around 100 μM.
The final assay buffer includes 1 nM (Assay 2) or 2 nM (Assay 1) of MALT1 full-length protein, 50 μM Ac-LRSR-AMC substrate, 50 mM Tris pH 7.5, 600 mM Sodium Citrate, 1 mM DTT, 1 mM EDTA, and 0.05% BSA in 384-well plate format using black microtiter square well plates (Optiplate 384-F, Perkin Elmer).
Test compounds were dissolved in 100% DMSO at stock of 10 mM, with final DMSO concentration 0.1%. Test compounds were pre-incubated with MALT1 protein for 2 h at room temperature. Substrate was added after the pre-incubation and fluorescence signal was measured using Envision at excitation 355 nm and emission 460 nm after 8 hr incubation at RT. Increase in the assay signal was linear over this period and proportional with increase in the enzyme content.
The fluorescence units were transformed to percentage of remaining activity by using the high control (HC, median of fluorescence signal from wells containing MALT1 protein, substrate, and DMSO) and low control (LC, median of fluorescence signal from wells with substrate only) with the formula below: […]

With CC1(C)CC(C(=O)Nc2cnc(-c3nnnn3CCO)c(Cl)c2)c2cnc3cc(Cl)nn3c21 (stereo not shown) the IC50 was 100 to 1000 nM.
